The values that follow come from article PMC11115335.

Chains of the proteins cited; added tags and fusions are not shown.
UniProt P41233: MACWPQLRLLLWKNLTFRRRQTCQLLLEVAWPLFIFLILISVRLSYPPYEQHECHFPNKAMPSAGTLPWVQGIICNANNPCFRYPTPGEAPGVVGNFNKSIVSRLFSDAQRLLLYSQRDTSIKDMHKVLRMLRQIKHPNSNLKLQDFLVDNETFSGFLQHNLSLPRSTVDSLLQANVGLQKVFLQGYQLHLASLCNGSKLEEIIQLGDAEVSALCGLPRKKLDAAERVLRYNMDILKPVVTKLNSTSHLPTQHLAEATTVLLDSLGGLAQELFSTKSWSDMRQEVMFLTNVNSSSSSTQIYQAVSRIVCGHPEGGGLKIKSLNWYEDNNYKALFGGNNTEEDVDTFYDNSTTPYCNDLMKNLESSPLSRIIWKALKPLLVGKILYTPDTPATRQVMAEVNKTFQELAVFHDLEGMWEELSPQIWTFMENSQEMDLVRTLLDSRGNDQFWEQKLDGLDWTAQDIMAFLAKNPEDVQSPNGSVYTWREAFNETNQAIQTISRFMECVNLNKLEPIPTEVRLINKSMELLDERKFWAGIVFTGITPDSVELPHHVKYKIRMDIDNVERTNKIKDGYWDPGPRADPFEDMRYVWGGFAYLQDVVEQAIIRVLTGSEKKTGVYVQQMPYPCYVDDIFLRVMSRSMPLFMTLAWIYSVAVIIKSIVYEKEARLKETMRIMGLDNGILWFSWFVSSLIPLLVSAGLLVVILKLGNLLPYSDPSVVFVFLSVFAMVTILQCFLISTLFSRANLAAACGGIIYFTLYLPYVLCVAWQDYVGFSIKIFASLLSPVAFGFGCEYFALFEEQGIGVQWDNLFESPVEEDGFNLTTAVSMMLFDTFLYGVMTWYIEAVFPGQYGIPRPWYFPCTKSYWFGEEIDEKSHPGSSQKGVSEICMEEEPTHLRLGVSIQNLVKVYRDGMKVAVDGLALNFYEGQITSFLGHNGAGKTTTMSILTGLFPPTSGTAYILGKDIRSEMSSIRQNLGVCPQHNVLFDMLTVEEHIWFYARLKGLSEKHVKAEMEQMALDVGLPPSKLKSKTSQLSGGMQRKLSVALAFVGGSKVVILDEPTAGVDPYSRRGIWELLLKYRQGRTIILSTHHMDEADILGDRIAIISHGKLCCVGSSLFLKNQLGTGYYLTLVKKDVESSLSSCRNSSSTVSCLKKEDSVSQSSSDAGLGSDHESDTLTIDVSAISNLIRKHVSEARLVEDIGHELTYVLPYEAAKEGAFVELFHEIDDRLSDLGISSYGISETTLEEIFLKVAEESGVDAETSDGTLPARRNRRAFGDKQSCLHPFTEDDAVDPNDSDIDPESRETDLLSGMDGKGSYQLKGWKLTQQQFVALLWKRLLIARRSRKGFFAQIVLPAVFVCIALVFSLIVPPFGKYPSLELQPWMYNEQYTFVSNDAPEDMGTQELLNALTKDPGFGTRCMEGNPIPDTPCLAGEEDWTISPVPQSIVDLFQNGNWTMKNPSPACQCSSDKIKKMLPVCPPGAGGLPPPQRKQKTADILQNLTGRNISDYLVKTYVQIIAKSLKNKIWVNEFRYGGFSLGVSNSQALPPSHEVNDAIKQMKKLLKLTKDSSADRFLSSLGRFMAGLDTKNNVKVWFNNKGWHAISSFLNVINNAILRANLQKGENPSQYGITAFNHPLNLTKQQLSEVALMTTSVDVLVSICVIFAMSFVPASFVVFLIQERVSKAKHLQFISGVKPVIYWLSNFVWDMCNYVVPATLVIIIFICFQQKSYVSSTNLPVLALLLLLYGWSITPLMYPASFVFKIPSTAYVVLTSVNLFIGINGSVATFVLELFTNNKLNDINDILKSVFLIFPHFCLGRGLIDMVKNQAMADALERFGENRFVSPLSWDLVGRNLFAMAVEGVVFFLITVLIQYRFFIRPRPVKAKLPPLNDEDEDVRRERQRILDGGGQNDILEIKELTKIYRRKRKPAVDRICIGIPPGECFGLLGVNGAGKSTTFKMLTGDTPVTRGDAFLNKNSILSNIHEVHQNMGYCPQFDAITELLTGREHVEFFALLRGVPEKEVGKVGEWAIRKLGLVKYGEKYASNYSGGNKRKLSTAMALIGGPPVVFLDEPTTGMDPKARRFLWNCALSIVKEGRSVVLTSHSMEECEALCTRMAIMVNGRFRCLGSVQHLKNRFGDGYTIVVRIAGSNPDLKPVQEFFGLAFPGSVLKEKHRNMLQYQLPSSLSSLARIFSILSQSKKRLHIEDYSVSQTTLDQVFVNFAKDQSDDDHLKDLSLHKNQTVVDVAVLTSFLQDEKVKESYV

Results are given in words; binding and its absence hold for the method and conditions named. In cells and extracts the contact can be indirect. Some entries that bind do so weakly or less than the wild type.

The test addresses T1, caveolin-1 (mouse (endogenous in MAECs)) (UniProt P49817).
T1 sequence: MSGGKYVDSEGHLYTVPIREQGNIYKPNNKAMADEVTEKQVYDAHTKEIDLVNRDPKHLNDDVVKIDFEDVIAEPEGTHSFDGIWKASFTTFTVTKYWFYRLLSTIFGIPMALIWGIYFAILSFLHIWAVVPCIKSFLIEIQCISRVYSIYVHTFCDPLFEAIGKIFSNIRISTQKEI
The test is described as follows: co-IP; MAECs treated with vehicle medium or 20 ug/ml apoAI at 37°C for 16 h, cross-linked with 250 uM dithiobis(succinimidyl propionate), lysed in 50 mM Tris HCl pH 8, 150 mM NaCl, 1% TX100, 2 mM EDTA; lysate incubated with clean and then CAV1 antibody-associated Protein A/G Plus agarose beads; Western blot with ABCA1 and CAV1 antibodies.

For “ATP-binding cassette transport A1 (from UniProt P41233 1-2261)”, the binding entry is recorded as “binds”.
